Library screening results

Source: ChEMBL document CHEMBL3988442, “University of Dundee, Small-Polar-MMV Screening Library” (2021).

A: 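Whole-cell assay for inhibitors of Mycobacterium tuberculosis growth, labelled Cornell in the record; the read-out is not stated. The concentration is filed as 10 mM, unlikely as a test dose, so the dose is not known. The record gives no direction; compounds strong in two other growth screens of this library score well above the rest, so higher reads as stronger inhibition. About 53,000 compounds were tested under these conditions; 1.7% (about 900) showed 50% or more at least once.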
B: 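Assay on Mycobacterium tuberculosis, filed only as a heat shock assay from Cornell; the read-out is not stated. The concentration is filed as 10 mM, unlikely as a test dose, so the dose is not known. The record gives no direction; compounds that gave an IC50 in retests scored well above the rest, so higher reads as stronger inhibition. About 69,000 compounds were tested under these conditions; 1.4% (about 930) showed 50% or more at least once.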

Each number is a percent effect as filed.
The controls that fix the scale are not given in the record; negative values are as filed.
The compounds are a random part of those screened.

O=C(O)C(F)(F)F.[H][C@@]12C[C@@H](C(=O)N3CCCC3)C[C@@]1([H])N(CC1CC1)CCO2 gave A: -1.294%; B: -22.81%. Result for Cc1ccsc1CNC(=O)CSc1nnc[nH]1 was A: -18%; B: -8.279%. With Cc1noc(C)c1CN1CC2(CCN(C(=O)c3cscn3)CC2)CC1=O the screen gave A: 1.121%; B: 0.2974%. Result for CC(C(=O)NCc1cccc(N2CC=CC2)c1)n1cccn1 (centres undefined) was B: -6.027%. O=C(Cc1csc(-c2ccc(Cl)cc2)n1)NC(C(=O)O)c1ccccc1 (centres undefined) read B: 23.04%. With Cc1nn(C)c(C)c1NC(=O)CN1CCOC(Cn2cccn2)C1 (centres undefined) the screen gave A: -28.23%; B: 13.87%. Result for COCCCC(=O)N1CC(=O)Nc2cc(Br)ccc21 was B: -4.92%.

O=C(O)C(F)(F)F.O=C(O)C(F)(F)F.O=C(O)C(F)(F)F.[H][C@@]12CN(Cc3cccnc3)C[C@@]1([H])N(Cc1ccncc1)C(=O)CO2 gave A: 7.843%; B: -18.69%. With Cc1cccc(NC(=O)[C@@H]2CCCN2CC(=O)N2CCCCCC2)n1 the screen gave A: 14.63%; B: -15.03%. CC(=O)N[C@@H]1Cc2ccccc2[C@H]1Nc1nnc(C2CC2)o1 gave A: 33.91%; B: 9.411%. Result for COc1cc2nc(NCCNS(C)(=O)=O)cc(C)c2cc1OC was A: -13.43%; B: -52.03%. CN1CCCN(c2ccc(F)cc2CNC(=O)c2cccnc2)CC1 read A: -19.63%; B: -13.4%. Cc1nn(C)c(N(C)C)c1CNCc1cccc(Br)c1 read B: 13.99%. O=C(NCC1(O)CCOC1)c1ccccc1Cl (centres undefined) read A: -22.34%; B: 10.71%.

For CCCn1nc2c(cc1=O)CN(Cc1ccccn1)CC2 the result was B: 5.029%. With CCn1cnnc1C1CCN(C(=O)c2cc(C)c(C)s2)CC1 the screen gave B: -23.67%. With OCCOCc1n[nH]c2c1CN(Cc1cccs1)C2 the screen gave A: 11.27%; B: -12.7%. Result for CCCS(=O)(=O)NCc1cccnc1Oc1ccc(C)nc1 was A: -5.277%; B: -7.715%. For CNc1nc(C(=O)NCc2cccnc2N(C)C2CCCCC2)cs1 the result was A: 51.53%; B: -9.014%. CCc1c(C(=O)O)nnn1-c1cc(C)ccc1C read A: 19.34%; B: -3.7%. Result for [H][C@@]12CCN(C(=O)c3cnccn3)C[C@@]1([H])O[C@@H](c1nc(C)cs1)C2 was A: 13.4%; B: 12.4%.

With N#CC1(C(=O)N2CCOC(c3ccc(F)cc3)C2)CCCC1 (centres undefined) the screen gave A: 10.39%; B: -1.477%. With c1cn(CCNc2nc(NC3CC3)nc3c2CCNCC3)nn1 the screen gave A: -6.246%; B: 1%. Cc1nn(C)c(N2CCOCC2)c1CNC1CCN(C(C)(C)C)CC1 read A: -16.22%; B: 21.7%. CCn1c(C)nnc1SCCNC(=O)c1sc(C(C)C)nc1C gave A: 45.08%; B: 3.942%. For O=C1CCNc2ccc(F)cc2CN1Cc1ccccc1 the result was A: 1.475%; B: 31.13%. For Cc1noc(C)c1C(=O)N1Cc2ncn(C)c2C(COCC2CC2)C1.O=C(O)C(F)(F)F (centres undefined) the result was A: -11.42%; B: 16.79%. Result for Br.O=C(CN(C1=NCCCC1)c1ccccc1)c1ccc(OC(F)F)cc1 was A: 62.24%; B: 95.91%.

Cc1cc(N[C@H]2CN(CC(C)(C)N3CCOCC3)C[C@@H]2C2CC2)ncn1 gave B: -29.36%. With Cc1cc(-c2ccc(=O)n(C3CCN(C(=O)C4CCC4)CC3)n2)c(C)o1 the screen gave A: 3.368%; B: 47.23%. Result for Cc1cc(C)n(CC2CCCN2C(=O)c2ccc(NC3CC3)nc2)n1 (centres undefined) was A: -70.41%; B: -22.1%. For NC(=O)c1cccc(CNC(=O)NCCOc2ccc(F)c(F)c2)c1 the result was A: 29.91%; B: -21.15%. Result for [H][C@@]12CN(c3nc4c(cc3C(N)=O)CCC4)C[C@]1([H])N(C1CCCC1)C(=O)O2 was A: 13.23%; B: 8.688%. With CCn1nc(C(=O)N2CCCC(n3cncn3)C2)ccc1=O (centres undefined) the screen gave B: -20.19%. Result for FC1(F)CCN(Cc2cccnc2)CC12CCN(c1ccccc1)C2.O=C(O)C(F)(F)F.O=C(O)C(F)(F)F.O=C(O)C(F)(F)F (centres undefined) was A: 59.15%; B: 107.1%.